In the supplement of paper PMC10849652:
The list shows a part of the results.

Chains of the proteins cited; added tags and fusions are not shown. Lines headed by an entry give the natural chain unless they say otherwise; changes in a name come on top.
UniProt Q9NQG5: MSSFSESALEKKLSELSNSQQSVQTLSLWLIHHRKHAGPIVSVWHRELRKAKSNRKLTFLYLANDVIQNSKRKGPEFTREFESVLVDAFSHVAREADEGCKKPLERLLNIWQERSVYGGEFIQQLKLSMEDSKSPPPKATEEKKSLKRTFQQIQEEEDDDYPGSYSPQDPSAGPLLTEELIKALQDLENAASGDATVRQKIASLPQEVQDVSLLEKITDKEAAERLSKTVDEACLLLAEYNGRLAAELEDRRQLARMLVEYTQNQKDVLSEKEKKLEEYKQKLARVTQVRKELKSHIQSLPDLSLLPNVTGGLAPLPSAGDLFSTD
UniProt P28702: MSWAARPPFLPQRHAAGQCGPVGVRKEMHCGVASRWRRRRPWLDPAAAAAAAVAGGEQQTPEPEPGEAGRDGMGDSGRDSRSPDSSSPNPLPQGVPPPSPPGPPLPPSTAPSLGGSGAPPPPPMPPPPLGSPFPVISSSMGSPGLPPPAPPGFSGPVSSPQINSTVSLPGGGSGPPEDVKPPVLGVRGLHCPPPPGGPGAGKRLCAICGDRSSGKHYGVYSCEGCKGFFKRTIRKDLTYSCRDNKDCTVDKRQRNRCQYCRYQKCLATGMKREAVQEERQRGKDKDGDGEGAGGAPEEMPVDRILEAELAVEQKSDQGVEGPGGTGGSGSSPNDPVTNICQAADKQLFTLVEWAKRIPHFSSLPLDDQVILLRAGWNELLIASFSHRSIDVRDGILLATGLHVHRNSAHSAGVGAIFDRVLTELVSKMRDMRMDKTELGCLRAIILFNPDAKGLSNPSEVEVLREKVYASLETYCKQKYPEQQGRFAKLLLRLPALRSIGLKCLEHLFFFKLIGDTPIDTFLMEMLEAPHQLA
UniProt Q9NQC3: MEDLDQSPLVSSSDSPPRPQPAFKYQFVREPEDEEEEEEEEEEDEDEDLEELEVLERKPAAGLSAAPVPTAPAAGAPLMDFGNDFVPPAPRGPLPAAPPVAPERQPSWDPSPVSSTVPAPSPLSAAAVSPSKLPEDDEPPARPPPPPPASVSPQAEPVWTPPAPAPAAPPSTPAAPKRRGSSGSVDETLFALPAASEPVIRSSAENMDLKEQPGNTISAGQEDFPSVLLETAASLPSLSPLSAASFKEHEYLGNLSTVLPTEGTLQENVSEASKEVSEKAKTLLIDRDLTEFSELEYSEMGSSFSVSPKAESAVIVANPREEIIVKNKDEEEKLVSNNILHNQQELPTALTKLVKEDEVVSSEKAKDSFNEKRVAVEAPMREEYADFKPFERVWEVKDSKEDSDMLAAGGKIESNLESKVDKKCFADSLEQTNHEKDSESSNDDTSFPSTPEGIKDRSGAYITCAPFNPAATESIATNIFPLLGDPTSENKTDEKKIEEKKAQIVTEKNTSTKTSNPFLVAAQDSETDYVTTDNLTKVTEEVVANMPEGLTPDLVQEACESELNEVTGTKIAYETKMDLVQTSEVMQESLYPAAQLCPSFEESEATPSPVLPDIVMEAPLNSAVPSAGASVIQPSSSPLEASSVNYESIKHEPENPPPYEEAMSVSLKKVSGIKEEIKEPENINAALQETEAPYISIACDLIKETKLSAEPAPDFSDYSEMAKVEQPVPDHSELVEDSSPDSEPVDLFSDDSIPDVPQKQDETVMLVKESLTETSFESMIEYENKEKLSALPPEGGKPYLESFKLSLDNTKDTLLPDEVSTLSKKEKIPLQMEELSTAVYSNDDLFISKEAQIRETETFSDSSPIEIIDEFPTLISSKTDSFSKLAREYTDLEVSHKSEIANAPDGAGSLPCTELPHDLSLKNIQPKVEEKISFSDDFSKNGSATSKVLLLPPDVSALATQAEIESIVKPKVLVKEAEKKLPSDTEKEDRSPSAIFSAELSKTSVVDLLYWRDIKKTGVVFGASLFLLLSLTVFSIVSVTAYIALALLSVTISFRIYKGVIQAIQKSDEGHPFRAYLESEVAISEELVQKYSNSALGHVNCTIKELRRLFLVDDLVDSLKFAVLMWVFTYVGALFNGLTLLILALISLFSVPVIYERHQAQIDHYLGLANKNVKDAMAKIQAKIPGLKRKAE
UniProt P23297: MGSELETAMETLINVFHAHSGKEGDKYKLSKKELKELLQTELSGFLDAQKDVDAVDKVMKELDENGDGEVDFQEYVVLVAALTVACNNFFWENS
UniProt Q15050: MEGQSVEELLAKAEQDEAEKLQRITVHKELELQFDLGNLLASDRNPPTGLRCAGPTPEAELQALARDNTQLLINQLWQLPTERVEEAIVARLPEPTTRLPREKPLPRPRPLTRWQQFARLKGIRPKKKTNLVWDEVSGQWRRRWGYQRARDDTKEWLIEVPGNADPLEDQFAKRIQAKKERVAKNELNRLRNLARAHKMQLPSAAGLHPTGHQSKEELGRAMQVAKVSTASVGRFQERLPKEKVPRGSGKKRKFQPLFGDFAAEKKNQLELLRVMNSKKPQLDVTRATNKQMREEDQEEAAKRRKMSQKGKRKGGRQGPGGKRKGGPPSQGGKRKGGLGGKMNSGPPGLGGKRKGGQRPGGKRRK
UniProt P29034: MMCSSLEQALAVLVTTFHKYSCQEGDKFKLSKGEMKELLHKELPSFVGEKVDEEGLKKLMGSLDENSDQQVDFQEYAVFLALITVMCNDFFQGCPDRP
UniProt Q92622: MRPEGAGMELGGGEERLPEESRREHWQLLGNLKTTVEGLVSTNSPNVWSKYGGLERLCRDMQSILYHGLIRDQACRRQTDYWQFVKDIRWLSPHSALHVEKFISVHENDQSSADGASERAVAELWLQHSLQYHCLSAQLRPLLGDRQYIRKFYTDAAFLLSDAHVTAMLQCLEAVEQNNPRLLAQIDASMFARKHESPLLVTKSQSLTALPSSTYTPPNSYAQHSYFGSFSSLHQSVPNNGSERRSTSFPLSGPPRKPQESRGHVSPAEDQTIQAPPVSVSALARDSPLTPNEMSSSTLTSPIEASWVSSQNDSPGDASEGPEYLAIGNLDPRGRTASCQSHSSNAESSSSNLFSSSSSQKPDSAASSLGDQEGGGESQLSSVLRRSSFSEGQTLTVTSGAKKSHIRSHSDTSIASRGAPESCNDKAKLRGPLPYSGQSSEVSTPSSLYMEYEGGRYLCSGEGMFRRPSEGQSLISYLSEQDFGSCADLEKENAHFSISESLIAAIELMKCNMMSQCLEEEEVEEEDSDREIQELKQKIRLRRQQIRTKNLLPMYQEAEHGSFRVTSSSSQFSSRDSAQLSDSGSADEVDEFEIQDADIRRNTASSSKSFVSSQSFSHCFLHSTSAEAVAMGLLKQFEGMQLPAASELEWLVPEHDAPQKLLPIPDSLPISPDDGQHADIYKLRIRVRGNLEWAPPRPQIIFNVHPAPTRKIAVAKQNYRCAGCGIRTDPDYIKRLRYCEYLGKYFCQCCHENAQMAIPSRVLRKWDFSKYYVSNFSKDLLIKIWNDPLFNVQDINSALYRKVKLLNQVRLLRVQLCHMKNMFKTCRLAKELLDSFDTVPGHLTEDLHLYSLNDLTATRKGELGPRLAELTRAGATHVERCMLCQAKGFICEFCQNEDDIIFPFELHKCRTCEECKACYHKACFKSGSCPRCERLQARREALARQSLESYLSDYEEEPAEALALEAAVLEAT
UniProt Q9HCY8: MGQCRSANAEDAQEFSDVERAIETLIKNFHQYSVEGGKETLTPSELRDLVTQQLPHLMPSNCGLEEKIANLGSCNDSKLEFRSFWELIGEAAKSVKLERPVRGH
UniProt P31949: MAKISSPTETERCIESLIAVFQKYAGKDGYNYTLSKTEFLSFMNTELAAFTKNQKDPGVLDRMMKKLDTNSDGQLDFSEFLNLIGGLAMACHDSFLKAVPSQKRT
UniProt Q96T23: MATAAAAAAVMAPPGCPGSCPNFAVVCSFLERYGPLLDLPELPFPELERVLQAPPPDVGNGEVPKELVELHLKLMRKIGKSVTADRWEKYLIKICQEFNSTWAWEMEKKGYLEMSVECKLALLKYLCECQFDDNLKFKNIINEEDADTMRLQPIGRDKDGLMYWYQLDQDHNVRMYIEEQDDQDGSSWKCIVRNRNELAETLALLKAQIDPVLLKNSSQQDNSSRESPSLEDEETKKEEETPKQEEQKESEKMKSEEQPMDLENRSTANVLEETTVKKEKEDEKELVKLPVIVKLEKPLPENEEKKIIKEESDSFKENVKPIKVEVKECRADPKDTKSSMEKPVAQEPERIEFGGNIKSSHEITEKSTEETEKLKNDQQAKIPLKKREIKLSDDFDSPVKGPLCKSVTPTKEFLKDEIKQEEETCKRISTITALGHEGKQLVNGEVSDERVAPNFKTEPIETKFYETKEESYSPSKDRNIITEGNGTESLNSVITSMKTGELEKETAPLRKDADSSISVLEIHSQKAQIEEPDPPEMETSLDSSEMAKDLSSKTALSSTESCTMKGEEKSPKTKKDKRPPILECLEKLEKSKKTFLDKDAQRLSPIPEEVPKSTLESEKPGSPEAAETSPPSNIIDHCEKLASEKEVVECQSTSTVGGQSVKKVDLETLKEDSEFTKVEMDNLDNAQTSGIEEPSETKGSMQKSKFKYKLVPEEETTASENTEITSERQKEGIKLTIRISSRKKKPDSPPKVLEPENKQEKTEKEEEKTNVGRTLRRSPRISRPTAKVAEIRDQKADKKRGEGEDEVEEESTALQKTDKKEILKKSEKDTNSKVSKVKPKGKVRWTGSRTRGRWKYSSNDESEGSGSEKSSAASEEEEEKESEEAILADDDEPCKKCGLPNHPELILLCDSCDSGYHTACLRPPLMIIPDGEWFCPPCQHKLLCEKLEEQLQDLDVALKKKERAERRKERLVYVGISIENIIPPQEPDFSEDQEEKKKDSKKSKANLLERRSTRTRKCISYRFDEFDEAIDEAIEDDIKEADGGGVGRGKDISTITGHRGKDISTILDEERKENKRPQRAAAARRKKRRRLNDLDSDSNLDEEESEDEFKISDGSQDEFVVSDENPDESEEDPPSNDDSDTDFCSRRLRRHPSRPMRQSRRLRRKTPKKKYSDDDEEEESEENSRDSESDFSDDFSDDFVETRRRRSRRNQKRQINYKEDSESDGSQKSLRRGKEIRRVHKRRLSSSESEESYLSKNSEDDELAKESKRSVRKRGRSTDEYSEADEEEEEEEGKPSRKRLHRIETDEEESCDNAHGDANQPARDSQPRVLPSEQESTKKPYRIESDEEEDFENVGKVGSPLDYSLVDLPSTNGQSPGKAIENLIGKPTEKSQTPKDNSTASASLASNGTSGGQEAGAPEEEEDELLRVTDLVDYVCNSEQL
UniProt P26447: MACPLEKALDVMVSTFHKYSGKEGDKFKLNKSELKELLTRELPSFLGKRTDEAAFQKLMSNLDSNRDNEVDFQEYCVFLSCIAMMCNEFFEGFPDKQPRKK

Legend:
Assay in all cases: log2 fold change, soluble protein after heating vs DMSO (PISA); higher = thermal stabilisation; K562 lysate, 10 uM; active = over 0.2 and 3.5 SD of the protein, either way, in both replicates (recomputed)
lapatinib = compound: CS(=O)(=O)CCNCc1ccc(-c2ccc3ncnc(Nc4ccc(OCc5cccc(F)c5)c(Cl)c4)c3c2)o1 [lapatinib]
How it was run: (§1)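 To prepare the extract, K562 pellets were dounce-homogenised in PBS pH 7.4 with 1 mM MgCl2, giving crude material at 1 mg/mL protein. This was treated with 10 μM compound for 30 min, then heated in aliquots for 3 min over 48°C-58°C before pooling and addition of NP-40 to 0.5% at 4°C. Centrifugation at 21,000xg for 90 min left soluble protein in the supernatant, which TMTpro 16plex LC-MS/MS quantified with equalised channel sums. Results are log-two fold changes in thermal stability compared with solvent controls, from duplicates.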

pictilisib = compound: CS(=O)(=O)N1CCN(Cc2cc3nc(-c4cccc5[nH]ncc45)nc(N4CCOCC4)c3s2)CC1 [pictilisib]
How it was run: as §1

crizotinib = compound: C[C@@H](Oc1cc(-c2cnn(C3CCNCC3)c2)cnc1N)c1c(Cl)ccc(F)c1Cl [crizotinib]
How it was run: as §1

[1] = compound: C[C@H](C1=CC=C(C=C1)C(=O)NC2=C3C=CNC3=NC=C2)N
How it was run: as §1

duvelisib = compound: C[C@H](Nc1ncnc2nc[nH]c12)c1cc2cccc(Cl)c2c(=O)n1-c1ccccc1 [duvelisib]
How it was run: as §1

gandotinib = compound: Cc1cc(Nc2cc(CN3CCOCC3)c3nc(C)c(Cc4ccc(Cl)cc4F)n3n2)n[nH]1 [gandotinib]
How it was run: as §1

tozasertib = compound: Cc1cc(Nc2cc(N3CCN(C)CC3)nc(Sc3ccc(NC(=O)C4CC4)cc3)n2)n[nH]1 [tozasertib]
How it was run: as §1

doramapimod = compound: Cc1ccc(-n2nc(C(C)(C)C)cc2NC(=O)Nc2ccc(OCCN3CCOCC3)c3ccccc23)cc1 [doramapimod]
How it was run: as §1

bafetinib = compound: Cc1ccc(NC(=O)c2ccc(CN3CC[C@H](N(C)C)C3)c(C(F)(F)F)c2)cc1Nc1nccc(-c2cncnc2)n1 [bafetinib]
How it was run: as §1

[2] = compound: Cc1cccc(CC(=O)N2CCc3c2ccc(-c2cn(C)c4ncnc(N)c24)c3F)n1
How it was run: as §1

nilotinib = compound: Cc1cn(-c2cc(NC(=O)c3ccc(C)c(Nc4nccc(-c5cccnc5)n4)c3)cc(C(F)(F)F)c2)cn1 [nilotinib]
How it was run: as §1

[3] = compound: Cc1nc(Nc2n[nH]c3c2CN(C(=O)N[C@H](CN(C)C)c2ccccc2)C3(C)C)c2sccc2n1
How it was run: as §1

dasatinib = compound: Cc1nc(Nc2ncc(C(=O)Nc3c(C)cccc3Cl)s2)cc(N2CCN(CCO)CC2)n1 [dasatinib]
How it was run: as §1

[4] = compound: Cc1ncc(-c2ccnc(Nc3ccc(S(C)(=O)=O)cc3)n2)n1C(C)C
How it was run: as §1

[5] = compound: Cn1cc(-c2ccc3c(c2)CCN3C(=O)Cc2cccc(C(F)(F)F)c2)c2c(N)ncnc21
How it was run: as §1

quisinostat = compound: Cn1cc(CNCC2CCN(c3ncc(C(=O)NO)cn3)CC2)c2ccccc21 [quisinostat]
How it was run: as §1

tipifarnib = compound: Cn1cncc1[C@@](N)(c1ccc(Cl)cc1)c1ccc2c(c1)c(-c1cccc(Cl)c1)cc(=O)n2C [tipifarnib]
How it was run: as §1

[6] = compound: NC(=O)Nc1cc(-c2cccc(F)c2)sc1C(=O)N[C@H]1CCCNC1
How it was run: as §1

[7] = compound: NC(=O)c1cnc(N[C@@H]2CCCC[C@@H]2N)nc1Nc1cccc(-n2nccn2)c1
How it was run: as §1

[8] = compound: NC1(c2ccc(-c3nc4ccn5c(=O)[nH]nc5c4cc3-c3ccccc3)cc2)CCC1
How it was run: as §1

Measured: log2 fold change

RPRD1B (UniProt Q9NQG5)
inactive: lapatinib 0.009 | pictilisib 0.037 | crizotinib 0.078 | [1] -0.037 | duvelisib -0.016 | gandotinib 0.002 | tozasertib -0.01 | doramapimod 0.012 | bafetinib -0.059 | [2] 0 | nilotinib -0.016 | [3] -0.033 | dasatinib 0.006 | [4] -0.071 | [5] 0.007 | quisinostat 0.135 | tipifarnib 0 | [6] -0.031 | [7] 0.006 | [8] 0.084

RPS3A (UniProt P61247)
inactive: lapatinib 0 | pictilisib 0.017 | crizotinib 0.047 | [1] 0.041 | duvelisib -0.005 | gandotinib -0.043 | tozasertib 0.018 | doramapimod 0.001 | bafetinib 0.016 | [2] -0.018 | nilotinib -0.007 | [3] 0.003 | dasatinib 0.024 | [4] -0.029 | [5] 0.013 | quisinostat 0.074 | tipifarnib 0.041 | [6] -0.004 | [7] -0.033 | [8] 0.043

RXRB isoform 3 (UniProt P28702)
inactive: lapatinib 0.085 | pictilisib -0.096 | crizotinib -0.011 | [1] 0.046 | duvelisib -0.051 | gandotinib -0.074 | tozasertib 0.006 | doramapimod -0.091 | bafetinib -0.11 | [2] 0.023 | nilotinib 0.01 | [3] -0.038 | dasatinib -0.018 | [4] 0.001 | [5] 0.095 | quisinostat -0.038 | tipifarnib -0.052 | [6] 0.032 | [7] -0.031 | [8] -0.199

RTN4 (UniProt Q9NQC3)
inactive: lapatinib -0.052 | pictilisib -0.018 | crizotinib -0.054 | [1] -0.162 | duvelisib 0 | gandotinib 0.091 | tozasertib -0.033 | doramapimod 0.003 | bafetinib -0.016 | [2] 0.06 | nilotinib 0.028 | [3] -0.034 | dasatinib -0.025 | [4] -0.013 | [5] -0.011 | quisinostat -0.117 | tipifarnib -0.035 | [6] 0.001 | [7] -0.028 | [8] 0.013

S100A1 (UniProt P23297)
inactive: lapatinib -0.022 | crizotinib -0.027 | [1] 0.002 | duvelisib -0.196 | gandotinib -0.017 | tozasertib 0.038 | doramapimod 0.174 | [2] 0.013 | nilotinib 0.129 | [3] -0.068 | dasatinib 0.001 | [4] 0.001 | [5] 0.048 | quisinostat 0.019 | tipifarnib -0.006 | [6] 0.109 | [7] -0.01 | [8] -0.045

RRS1 (UniProt Q15050)
inactive: lapatinib -0.016 | pictilisib 0 | crizotinib -0.091 | [1] -0.051 | duvelisib 0.012 | gandotinib -0.016 | tozasertib 0.044 | doramapimod -0.001 | bafetinib 0.011 | [2] 0.132 | nilotinib -0.009 | [3] 0.013 | dasatinib -0.058 | [4] 0.05 | [5] -0.039 | quisinostat -0.033 | tipifarnib -0.003 | [6] 0.016 | [7] 0.007 | [8] -0.021

S100A2 (UniProt P29034)
inactive: lapatinib -0.105 | pictilisib -0.008 | crizotinib -0.533 | [1] -0.374 | gandotinib 1.59 | tozasertib -0.001 | doramapimod 0.094 | bafetinib -0.152 | [2] 0.463 | nilotinib 0.186 | [3] -0.215 | [4] -0.049 | quisinostat -0.658 | tipifarnib -0.273 | [6] -0.055 | [7] 0.069 | [8] -0.184

RUBCN (UniProt Q92622)
inactive: lapatinib 0 | pictilisib -0.027 | crizotinib -0.016 | [1] -0.101 | duvelisib -0.062 | gandotinib -0.005 | tozasertib -0.032 | doramapimod -0.009 | bafetinib 0.01 | [2] 0.044 | nilotinib -0.029 | [3] -0.01 | dasatinib 0.034 | [4] -0.033 | [5] 0.004 | quisinostat 0.01 | tipifarnib 0.044 | [6] 0 | [7] 0.116 | [8] 0.014

RPS24 isoform 4 (UniProt P62847)
inactive: lapatinib -0.048 | pictilisib 0.007 | crizotinib -0.022 | [1] 0.008 | duvelisib 0.022 | gandotinib -0.028 | tozasertib -0.01 | doramapimod 0.006 | bafetinib -0.016 | [2] 0.01 | nilotinib 0.001 | [3] -0.023 | dasatinib 0.017 | [4] -0.017 | [5] -0.006 | quisinostat -0.006 | tipifarnib 0.008 | [6] -0.027 | [7] -0.023 | [8] -0.022

S100A14 (UniProt Q9HCY8)
inactive: lapatinib 0.15 | pictilisib 0.432 | duvelisib -0.353 | tozasertib 0.138 | bafetinib -0.123 | dasatinib 0.357 | [5] -0.089 | [7] 0.331 | [8] 0.165

S100A11 (UniProt P31949)
inactive: lapatinib 0.105 | pictilisib 0.006 | crizotinib 0.02 | [1] 0.097 | duvelisib 0.052 | gandotinib -0.042 | tozasertib -0.043 | doramapimod 0.003 | bafetinib -0.039 | [2] -0.032 | nilotinib 0.067 | [3] 0.007 | dasatinib 0.013 | [4] 0.056 | [5] -0.02 | quisinostat 0.05 | tipifarnib 0.041 | [6] -0.033 | [7] 0 | [8] -0.006

RSF1 (UniProt Q96T23)
inactive: lapatinib 0.016 | pictilisib -0.029 | crizotinib -0.014 | [1] 0.067 | duvelisib -0.021 | gandotinib -0.062 | tozasertib 0.013 | doramapimod 0.018 | bafetinib 0.023 | [2] -0.024 | dasatinib -0.128 | [5] 0.07 | quisinostat 0 | [6] -0.001 | [7] -0.028 | [8] -0.169

S100A4 (UniProt P26447)
inactive: lapatinib -0.037 | crizotinib 0.055 | [1] 0.157 | duvelisib -0.131 | gandotinib -0.005 | tozasertib -0.004 | doramapimod 0.464 | [2] -0.043 | nilotinib 0.071 | [3] 0.081 | dasatinib 0.219 | [4] -0.078 | [5] -0.167 | quisinostat -0.095 | tipifarnib -0.3 | [6] 0.004 | [7] -0.099 | [8] -0.012
